From publication doi:10.1101/2025.11.20.689565
Results are given in words; binding and its absence hold for the method and conditions named. Sequences can lack the tags named with a protein.

Columns and labels:
[1] = molecular target: T1, MBP-6His-HA (M6HH)-tagged SPD-5 aa 1-60, not phosphorylated (C. elegans) (UniProt P91349); test: pull-down; MBP pull-down: purified SPD-5 fragments mixed at 2.0 μM with or without 500 nM PLK1(T194D) in kinase buffer 1 h at 23°C; then 75 nM each with 2 μg anti-MBP antibody in lysis buffer 2 h at 4°C and protein A beads 1 h at 4°C; five washes; immunoblot or Coomassie; both purified
T1 sequence: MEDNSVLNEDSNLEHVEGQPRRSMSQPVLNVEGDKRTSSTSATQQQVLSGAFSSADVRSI

[2] = molecular target: T2, MBP-6His-HA (M6HH)-tagged SPD-5 aa 1-113, not phosphorylated (C. elegans) (UniProt P91349); test: as above
T2 sequence: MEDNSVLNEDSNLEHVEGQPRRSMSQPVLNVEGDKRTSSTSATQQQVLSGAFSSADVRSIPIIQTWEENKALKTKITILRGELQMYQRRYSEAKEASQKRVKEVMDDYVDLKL

[3] = molecular target: T2, MBP-6His-HA (M6HH)-tagged SPD-5 aa 1-113, not phosphorylated (C. elegans); test: SEC-MALS; Superose 6 increase 10/300 or Superdex 200 increase 10/300 in 20 mM Tris-HCl pH 7.5, 50 mM NaCl, 5 mM EGTA, 2 mM MgCl2, 1 mM DTT; 120 μL of ~2.0 mg/ml protein loaded; with or without PLK1 phosphorylation; both purified
[4] = molecular target: SPD-5 aa 1-200 (taken as MBP-6His-HA-tagged), not phosphorylated (C. elegans) (UniProt P91349); test: as above

B1: untagged SPD-5 aa 101-473, not phosphorylated (domain or fragment, UniProt P91349 101-473)
chain: VKEVMDDYVDLKLGQENVQEKMEQYKLMEEDLLAMQSRIETSEDNFARQMKEFEAQKHAMEERIKELELSATDANNTTVGSFRGTLDDILKKNDPDFTLTSGYEERKINDLEAKLLSEIDKVAELEDHIQQLRQELDDQSARLADSENVRAQLEAATGQGILGAAGNAMVPNSTFMIGNGRESQTRDQLNYIDDLETKLADAKKENDKARQALVEYMNKCSKLEHEIRTMVKNSTFDSSSMLLGGQTSDELKIQIGKVNGELNVLRAENRELRIRCDQLTGGDGNLSISLGQSRLMAGIATNDVDSIGQGNETGGTSMRILPRESQLDDLEESKLPLMDTSSAVRNQQQFASMWEDFESVKDSLQNNHNDTLE
In the case of B1, the binding [1] is reported as “no binding (tested: 75 nM)”.

B2: Halo-tagged SPD-5 aa 200-345, not phosphorylated (domain or fragment, UniProt P91349 200-345)
chain: TSGYEERKINDLEAKLLSEIDKVAELEDHIQQLRQELDDQSARLADSENVRAQLEAATGQGILGAAGNAMVPNSTFMIGNGRESQTRDQLNYIDDLETKLADAKKENDKARQALVEYMNKCSKLEHEIRTMVKNSTFDSSSMLLGG
In the case of B2, the binding [2] is reported as “no binding (tested: 75 nM)”.

B3: MBP-6His-HA (M6HH)-tagged SPD-5 aa 1-113, not phosphorylated (domain or fragment, UniProt P91349 1-113)
chain: T2 sequence
With B3 the binding [3] was “no binding (tested: ~2.0 mg/ml loaded)”.

B4: SPD-5 aa 1-200 (taken as MBP-6His-HA-tagged), not phosphorylated (domain or fragment, UniProt P91349 1-200)
chain: MEDNSVLNEDSNLEHVEGQPRRSMSQPVLNVEGDKRTSSTSATQQQVLSGAFSSADVRSIPIIQTWEENKALKTKITILRGELQMYQRRYSEAKEASQKRVKEVMDDYVDLKLGQENVQEKMEQYKLMEEDLLAMQSRIETSEDNFARQMKEFEAQKHAMEERIKELELSATDANNTTVGSFRGTLDDILKKNDPDFTLT
For B4, the binding [4] was “no binding (tested: ~2.0 mg/ml loaded)”.
